Assay: general procedure: peptide synthesis; isobutyl chloroformate
Conditions: late stage modification step

Row | Substance | step yield [%]
1 | Ardacin aglycone-(2-N,N--dimethylaminoethyl amide) | 48.5
2 | Ardacin aglycone-(2-N--methylaminoethyl amide) | 30
